No constants are given. Whether binding was seen depends on the method and setting. Some results given as binding are weak or reduced against the parent protein; the word gives no strength.
B1: CB022701-20 (E-20) (ErbB2-binding peptide 18) (peptide)
peptide: DTDMCWWWSREFGWECAGAG
B2: ErbB2-binding peptide 11 (peptide)
peptide: CEVWGEVPWTC
B3: CB051701-19 (C-19) (ErbB2-binding peptide 19) (peptide)
peptide: SLALCLSEGVLLGADCRVLF
B4: ErbB2-binding peptide 5 (peptide)
peptide: WTGWCLNPEESTWGFCTGSF
B5: ErbB2-binding peptide 10 (peptide)
peptide: LNWECWYDYRLEAWDCRGDI
B6: 02-135 peptide phage clone (ErbB2-binding peptide 17) (peptide)
peptide: WTGWCFDDNHSTWGFCTGSF
notes: From an EC-1 biased peptide phage library; also called EBP-17
B7: ErbB2-binding peptide 13 (peptide)
peptide: SNESCGSPINPWGEMCLLML
B8: ErbB2-binding peptide 2 (peptide)
peptide: VVACSWDWTMGAVVCYERI
B9: 02-124 peptide phage clone (ErbB2-binding peptide 14) (peptide)
peptide: WTGWCLNPEESTWGFCRSAG
notes: From an EC-1 biased peptide phage library; also called EBP-14
B10: 02-137 peptide phage clone (ErbB2-binding peptide 15) (peptide)
peptide: WTGWCLSPEESTWGFCRSAG
notes: From an EC-1 biased peptide phage library; also called EBP-15
B11: ErbB2-binding peptide 8 (peptide)
peptide: PDIYCLSVTAPGFLICYERY
B12: ErbB2-binding peptide 12 (peptide)
peptide: CEVWGFVPWAC
B13: CB051701-25 (C-25) (ErbB2-binding peptide 20) (peptide)
peptide: WSSMCGDPTIADWLWCFSDA
B14: ErbB2-binding peptide 7 (peptide)
peptide: IQEVCWFDYNLSQWHCMTVI
B15: ErbB2-binding peptide 9 (peptide)
peptide: HDELCVFSFDFNALLCWPAE
B16: ErbB2-binding peptide 4 (peptide)
peptide: GRGWCWSEWQNDWFWCWDVW
B17: ErbB2-binding peptide 3 (peptide)
peptide: GFWTCEYDWWSDATVCMHTL
B18: EC-1 phage clone (ErbB2-binding peptide 1 displayed on phage) (peptide)
peptide: WTGWCLNPEESTWGFCTGSF
B19: 02-140 peptide phage clone (ErbB2-binding peptide 16) (peptide)
peptide: WTGWCLNPEESTWGFCSGYI
notes: From an EC-1 biased peptide phage library; also called EBP-16
B20: ErbB2-binding peptide 6 (peptide)
peptide: ARLQCWSLGWGGPVYCGFGQ

What follows are binders tested against ErbB2 (human) (UniProt P04626) (assay: peptide phage ELISA and immunofluorescence).

| Binder | binding |
| --- | --- |
| B1 | binds |
| B2 | binds |
| B3 | binds |
| B4 | binds |
| B5 | binds |
| B6 | binds |
| B7 | binds |
| B8 | binds |
| B9 | binds |
| B10 | binds |
| B11 | binds |
| B12 | binds |
| B13 | binds |
| B14 | binds |
| B15 | binds |
| B16 | binds |
| B17 | binds |
| B18 | binds |
| B19 | binds |
| B20 | binds |

Reference: US20030216309A1 (UNIVERSITY OF VERMONT AND STATE AGRICULTURAL COLLEGE, published 2003)
